PubChem BioAssay AID686943 | Drosophila RNAi Screening Center, 2013
The deposit covers about 23,000 reagents; shown is a random part of those that have a named target and a result. 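Extra replicates exist only for a retested subset of genes; insulin dose and duration not given; both raised and lowered dpERK matter.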 Names joined by + are all predicted targets of the reagent. Further read-outs or replicates are left out here. Not stated in the record: the amount of reagent, the time to read-out.

- Screen: 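Knockdowns that increase or decrease active ERK after insulin receptor stimulation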 (primary screen)
- Cells: Drosophila S2R+ haemocyte-like cells expressing YFP-tagged ERK (Rolled)
- Reagent: long dsRNA against Drosophila genes
- Challenge: insulin stimulation versus unstimulated cells; dose and duration not given
- Measurement: 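Antibody staining for doubly phosphorylated ERK divided by ERK-YFP signal, as plate z-scores, in insulin-treated and untreated cells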
- Direction: replicate 1, z-score of dpERK with insulin: higher = more active ERK per ERK-YFP after insulin

replicate 1, z-score of dpERK with insulin, by target and reagent
Daxx (GeneID 33906): DRSC03255 0.37
Tom (GeneID 39619): DRSC11306 0.01
tio (GeneID 44272): DRSC03739 0.58
shi (GeneID 45928): DRSC20373 -1.26
CG32259 (GeneID 317942): DRSC08082 0.37
Skp2 (GeneID 40548): DRSC12329 0.48
BckdhA (GeneID 41149): DRSC16395 0.41
asl (GeneID 40682): DRSC12319 -1.07
BomBc3 (GeneID 50055): DRSC15873 0.46
lncRNA:CR31781 (GeneID 12798248): DRSC02431 1.88; DRSC02432 -0.43
Mulk (GeneID 326168): DRSC02658 -0.59
CG33770 (GeneID 3772256): DRSC11717 -0.23
LRP1 (GeneID 35799): DRSC07238 0.26
fsd (GeneID 36463): DRSC06166 0.67
Alas (GeneID 37815): DRSC04044 -0.55
ec (GeneID 31339): DRSC17285 0.38; DRSC17286 -0.02; DRSC18658 0
IntS4 (GeneID 31793): DRSC17810 -1.14

6 entries from above in another layout.
| target | DRSC id | replicate 1, z-score of dpERK with insulin |
| --- | --- | --- |
| LRP1 (GeneID 35799) | DRSC07238 | 0.26 |
| fsd (GeneID 36463) | DRSC06166 | 0.67 |
| Alas (GeneID 37815) | DRSC04044 | -0.55 |
| ec (GeneID 31339) | DRSC17285 | 0.38 |
| ec (GeneID 31339) | DRSC17286 | -0.02 |
| ec (GeneID 31339) | DRSC18658 | 0 |

The results go on.
replicate 1, z-score of dpERK with insulin, by target and reagent
HDAC3 (GeneID 44446): DRSC12352 -0.4
St3 (GeneID 37743): DRSC04098 0.16; DRSC04505 -0.39
Atx-1 (GeneID 31624): DRSC18365 -0.01
ed (GeneID 33619): DRSC00350 -0.02; DRSC00438 -0.29; DRSC00439 -0.88; DRSC00478 -0.1
14-3-3epsilon (GeneID 42186): DRSC16370 -1.32
lncRNA:CR43485 (GeneID 12798587): DRSC08059 0.21
CG14662 + asRNA:CR43478: DRSC12248 0.31
armi (GeneID 38427): DRSC08193 0.05
cathD (GeneID 45268): DRSC07588 -0.13
SmD2 (GeneID 40781): DRSC12536 0.87
CG10126 (GeneID 41579): DRSC14191 -0.72
sip3 (GeneID 43747): DRSC15402 0.02
TTLL12 (GeneID 35732): DRSC06555 -0.06
alpha-Man-IIb (GeneID 41913): DRSC16898 -0.63
Ada3 (GeneID 32787): DRSC20321 1.32; DRSC20322 0.24
CG8064 (GeneID 42196): DRSC16373 0.16
frj (GeneID 33900): DRSC03250 -0.7
CG34125 (GeneID 4379886): DRSC00850 -0.3
y (GeneID 30980): DRSC18853 0.6
Hrb98DE (GeneID 43385): DRSC16709 -0.07
CG14743 (GeneID 35860): DRSC06479 -0.48
CG10834 (GeneID 35438): DRSC03693 0.22
Doc3 (GeneID 39036): DRSC10480 0.13
CG10516 (GeneID 39738): DRSC09738 0.71
CG1750 (GeneID 43699): DRSC15240 2.03
Chchd3 (GeneID 43672): DRSC16981 -0.45
CG32639 (GeneID 318134): DRSC18972 0.35
Sas-4 (GeneID 40859): DRSC12505 0.38
CG15880 (GeneID 33257): DRSC00474 -0.01
Gyg (GeneID 37419): DRSC03850 -0.81; DRSC04556 -0.12
CG14441 (GeneID 31611): DRSC17934 -1.98
